Data source: PubChem BioAssay AID1053208 (Peter MacCallum Cancer Centre, 2014)
Here is an unselected part of about 17,000 reagents. Over the whole deposit, 788 (4.7%) got an active call. 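Calls rest on z-score classes alone; an extra cut-off of viability at most 70% of control was not applied to them.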

Purpose: 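Synthetic lethal interactions between gene loss and doxorubicin in osteosarcoma cells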 (primary screen)
System: mouse osteosarcoma cells, early-passage culture from an engineered mouse model of fibroblastic bone tumour
Knock-down reagent: siRNA pool against mouse genes, 40 nM
Time to read-out: about 120 h (48 h before drug, then 72 h with drug)
Challenge: doxorubicin 100 nM for 72 h, roughly 30-40% inhibitory dose
Detection: 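Luminescent ATP signal taken as viability with or without 100 nM doxorubicin for 72 h; mean of two wells set against non-targeting siRNA and turned into robust z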
Direction: viability z-score with doxorubicin and doxorubicin viability vs non-targeting: higher = more viable cells under doxorubicin; viability z-score without drug: higher = more viable cells with knock-down alone; z-score of drug to no-drug ratio: higher = less drug sensitisation by knock-down
Hit rule: 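Called active if knock-down leaves viability unchanged without drug (z within -2 to 2) but lowers it with doxorubicin (z at or under -2)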

no.	target gene	PubChem SID	combined z-score class	viability z-score with doxorubicin	viability z-score without drug	z-score of drug to no-drug ratio	doxorubicin viability vs non-targeting	Call
1	Dok3	SID152333515	no change with or without drug	-0.45	-1.52	0.79	0.9	inactive
2	Atpaf1	SID152329658	no change with or without drug	0.11	-0.17	0.34	0.95	inactive
3	Ncaph	SID152332468	no change with or without drug	-0.79	-0.84	-0.11	0.87	inactive
4	Hells	SID152322523	no change with or without drug	0.67	0.84	0.22	1	inactive
5	Epgn	SID152311329	low cell count with doxorubicin only	-2.25	-0.51	-2.02	0.74	active
6	Mynn	SID152311022	no change with or without drug	0	-0.34	0.34	0.94	inactive
7	Ago1	SID152287122	no change with or without drug	-1.91	-0.17	-1.8	0.77	inactive
8	Slc25a11	SID152335685	no change with or without drug	0.67	-0.34	1.12	1	inactive
9	Lhfpl6	SID152341529	no change with or without drug	-1.12	-0.17	-1.01	0.84	inactive
10	Hpgd	SID152271125	no change with or without drug	0.79	1.52	-0.11	1.01	inactive
11	Scml2	SID152328247	no change with or without drug	-1.35	0	-1.35	0.82	inactive
12	AI606181	SID152285247	no change with or without drug	0.67	1.18	0	1	inactive
13	Sema3d	SID152285532	no change with or without drug	-1.12	0.34	-1.24	0.84	inactive
14	Copg1	SID152311767	low cell count with and without drug	-5.06	-2.19	-4.27	0.49	inactive
15	Cnot7	SID152287674	no change with or without drug	-1.01	-0.51	-0.67	0.85	inactive
16	Ttc24	SID152297600	no change with or without drug	0.45	0.67	0.11	0.98	inactive
17	Hspbap1	SID152315609	no change with or without drug	-1.35	-0.67	-0.9	0.82	inactive
18	Elk1	SID152293847	no change with or without drug	0	1.52	-0.9	0.94	inactive
19	5730453H04RIK	SID152280241	high cell count with and without drug	2.59	2.7	0.79	1.17	inactive
20	Pabpc2	SID152316510	no change with or without drug	-1.12	-0.51	-0.79	0.84	inactive
21	Dynlrb1	SID152322080	no change with or without drug	1.35	0.17	1.35	1.06	inactive
22	Pik3r2	SID152343030	no change with or without drug	-0.11	-1.85	1.46	0.93	inactive
23	Apoa2	SID152265433	no change with or without drug	-0.11	0	0	0.93	inactive
24	E030024N20Rik	SID152309511	high cell count without drug only	0.22	3.04	-1.46	0.96	inactive
25	Mib2	SID152314633	low cell count with doxorubicin only	-3.37	0	-3.48	0.64	active
26	Tor1a	SID152301320	no change with or without drug	-0.9	0.17	-0.9	0.86	inactive
27	Smcr8	SID152324137	no change with or without drug	-1.69	0.51	-1.91	0.79	inactive
28	Mtag2	SID152292291	no change with or without drug	-0.22	-0.17	0	0.92	inactive
29	Pax3	SID152272293	no change with or without drug	0.11	-0.17	0.34	0.95	inactive
30	Ly86	SID152263158	no change with or without drug	-1.35	-1.35	-0.45	0.82	inactive
31	Olig3	SID152321689	no change with or without drug	1.46	1.85	0.34	1.07	inactive
32	Cpeb3	SID152260922	no change with or without drug	-0.9	-0.17	-0.79	0.86	inactive
33	Or4p19	SID152266616	low cell count with doxorubicin only	-2.7	-1.52	-1.91	0.7	active
34	Prodh	SID152335106	no change with or without drug	-0.22	-1.01	0.56	0.92	inactive
35	Zfp202	SID152335017	no change with or without drug	-1.91	-1.18	-1.12	0.77	inactive
36	Czib	SID152262794	no change with or without drug	-1.01	0.67	-1.35	0.85	inactive
37	Pcdh7	SID152303753	no change with or without drug	0.79	0.51	0.56	1.01	inactive
38	Rab34	SID152261171	no change with or without drug	0.9	0.51	0.67	1.02	inactive
39	Moxd1	SID152267704	low cell count with doxorubicin only	-2.25	-1.01	-1.69	0.74	active
40	4933411G06Rik	SID152278026	high cell count with doxorubicin only	2.59	0.84	2.14	1.17	inactive
41	Rab24	SID152265746	no change with or without drug	-0.11	0.67	-0.45	0.93	inactive
42	Tac1	SID152311657	no change with or without drug	0.67	0.84	0.22	1	inactive
43	Mgme1	SID152292385	no change with or without drug	0.56	0.17	0.56	0.99	inactive
44	Nsd2	SID152335853	no change with or without drug	-1.35	-0.84	-0.79	0.82	inactive
45	Ptcd1	SID152310945	no change with or without drug	0.45	0.84	0	0.98	inactive
46	Pyroxd1	SID152334061	no change with or without drug	0	-0.34	0.34	0.94	inactive
47	Aldoart2	SID152274464	no change with or without drug	-0.9	0.84	-1.35	0.86	inactive
48	4931422A03Rik	SID152338110	high cell count without drug only	0.22	3.37	-1.69	0.96	inactive
49	Tenm3	SID152307643	no change with or without drug	0.9	-0.51	1.46	1.02	inactive
50	Ppfibp2	SID152281065	no change with or without drug	-0.9	-0.84	-0.22	0.86	inactive
51	Gdf2	SID152301050	no change with or without drug	-1.8	-1.52	-0.79	0.78	inactive
52	Ipo11	SID152325727	no change with or without drug	-0.67	-1.52	0.45	0.88	inactive
53	Rps6ka6	SID152296989	no change with or without drug	0.67	-1.18	1.8	1	inactive
54	Or10a2	SID152341883	no change with or without drug	-0.9	-0.17	-0.79	0.86	inactive
55	Whr1	SID152262535	no change with or without drug	1.46	0.67	1.12	1.07	inactive
56	Med11	SID152339793	no change with or without drug	0.67	1.85	-0.45	1	inactive
57	Tob2	SID152290118	no change with or without drug	-0.56	0.17	-0.56	0.89	inactive
58	Sp4	SID152298780	no change with or without drug	0	1.35	-0.79	0.94	inactive
59	Nelfe	SID152324230	low cell count with doxorubicin only	-2.25	-0.34	-2.02	0.74	active
60	Siva1	SID152278141	no change with or without drug	0.45	-0.17	0.67	0.98	inactive
61	Cpox	SID152299987	no change with or without drug	0.11	1.69	-0.9	0.95	inactive
62	Mecr	SID152304193	no change with or without drug	0.67	0.67	0.34	1	inactive
63	Dscc1	SID152297055	no change with or without drug	0.9	1.18	0.22	1.02	inactive

Entries listed so far whose target name starts with C or c:
target gene	PubChem SID	combined z-score class	viability z-score with doxorubicin	viability z-score without drug	z-score of drug to no-drug ratio	doxorubicin viability vs non-targeting	Call
Copg1	SID152311767	low cell count with and without drug	-5.06	-2.19	-4.27	0.49	inactive
Cnot7	SID152287674	no change with or without drug	-1.01	-0.51	-0.67	0.85	inactive
Cpeb3	SID152260922	no change with or without drug	-0.9	-0.17	-0.79	0.86	inactive
Czib	SID152262794	no change with or without drug	-1.01	0.67	-1.35	0.85	inactive
Cpox	SID152299987	no change with or without drug	0.11	1.69	-0.9	0.95	inactive
